Source: patent publication US20200308267A1
No constants are given. Whether binding was seen depends on the method and setting.

Assays:
VEGFC [1] = test: binding ELISA on coated VEGFC (Example 5.8)
VEGFB [2] = test: binding ELISA on coated VEGFB (Example 5.8)
PIGF [3] = test: binding ELISA on coated PIGF (Example 5.8)
VEGFD [4] = test: binding ELISA, coated antigen
VEGFB [5] = test: binding ELISA, coated antigen
VEGFC [6] = test: binding ELISA, coated antigen
PIGF [7] = test: binding ELISA, coated antigen
VEGFD [8] = test: binding ELISA on coated VEGFD (Example 5.8)

Binder | binding (VEGFC [1]) | binding (VEGFB [2]) | binding (PIGF [3]) | binding (VEGFD [4]) | binding (VEGFB [5]) | binding (VEGFC [6]) | binding (PIGF [7]) | binding (VEGFD [8])
VEGFBII022 (VHH, not shown: small tags and cut ends) EVQLVESGGGLVQTGDSLRLSCEVSGRTFSSYSMGWFRQAQGKEREFVVAISKGGYKYDSVSLEGRFTISKDNAKNTVYLQINSLKPEDTAVYYCASSRAYGSSRLRLADTYEYWGQGTQVTVSSGGGGSGGGSEVQLVESGGGLVQPGGSLRLSCVASGIRFMSMAWYRQAPGKHRELVARISSGGTTAYVDSVKGRFTISRDNSKNTVYLQMNSLKAEDTAVYYCNTFSSRPNPWGAGTQVTVSS | no binding (tested: 5e-7 M) | no binding (tested: 5e-7 M) | no binding (tested: 5e-7 M) | no binding | no binding | no binding | no binding | no binding (tested: 5e-7 M)
VEGFBII021 (VHH, not shown: small tags and cut ends) EVQLVESGGGLVQTGDSLRLSCEVSGRTFSSYSMGWFRQAQGKEREFVVAISKGGYKYDSVSLEGRFTISKDNAKNTVYLQINSLKPEDTAVYYCASSRAYGSSRLRLADTYEYWGQGTQVTVSSGGGGSGGGGSGGGGSGGGGSGGGGSGGGGSGGGGSGGGGSEVQLVESGGGLVQPGGSLRLSCVASGIRFMSMAWYRQAPGKHRELVARISSGGTTAYVDSVKGRFTISRDNSKNTVYLQMNSLKAEDTAVYYCNTFSSRPNPWGAGTQVTVSS | no binding (tested: 5e-7 M) | no binding (tested: 5e-7 M) | no binding (tested: 5e-7 M) | no binding | no binding | no binding | no binding | no binding (tested: 5e-7 M)
VEGFBII23A06 (VHH, not shown: small tags and cut ends) VHH: EVQLVESGGGLVQPGDSLKLSCAFSGRTFSSYSMGWFRQAQGKEREFVVAISSGGFIYDAVSLEGRFTISRDNTKNTVYLQTPSLKPEDTAVYYCAASRAYGSSRLRLADTYDYWGQGTQVTVSS |  |  |  | no binding (tested: 500 nM) | no binding (tested: 500 nM) | no binding (tested: 500 nM) | no binding (tested: 500 nM) | 
VEGFBII023 (VHH, not shown: small tags and cut ends) EVQLVESGGGLVQTGDSLRLSCEVSGRTFSSYSMGWFRQAQGKEREFVVAISKGGYKYDSVSLEGRFTISKDNAKNTVYLQINSLKPEDTAVYYCASSRAYGSSRLRLADTYEYWGQGTQVTVSSGGGGSGGGGSGGGGSGGGGSGGGGSGGGGSGGGGSGGGGSEVQLVESGGGLVQAGGSLRLSCAASGRTFSNYAMGWFRQAPGKERVLVADISSSGINTYVADAVKGRFTISRDNAKNTVYLQMNSLKPEDTAVYYCAASAWWYSQMARDNYRYWGQGTQVTVSS | no binding (tested: 5e-7 M) | no binding (tested: 5e-7 M) | no binding (tested: 5e-7 M) | no binding | no binding | no binding | no binding | no binding (tested: 5e-7 M)

Further lines, results first:

binding (VEGFC [1]) | binding (VEGFB [2]) | binding (PIGF [3]) | binding (VEGFD [4]) | binding (VEGFB [5]) | binding (VEGFC [6]) | binding (PIGF [7]) | binding (VEGFD [8]) | Binder
no binding (tested: 5e-7 M) | no binding (tested: 5e-7 M) | no binding (tested: 5e-7 M) | no binding | no binding | no binding | no binding | no binding (tested: 5e-7 M) | VEGFBII024 (VHH, not shown: small tags and cut ends) EVQLVESGGGLVQTGDSLRLSCEVSGRTFSSYSMGWFRQAQGKEREFVVAISKGGYKYDSVSLEGRFTISKDNAKNTVYLQINSLKPEDTAVYYCASSRAYGSSRLRLADTYEYWGQGTQVTVSSGGGGSGGGGSGGGGSGGGGSGGGGSGGGGSGGGGSGGGGSEVQLVESGGGLVQAGGSLRLSCTASGSAFKSYRMGWFRRTPGKEDEFVASISWTYGSTFYADSVKGRFTMSRDKAKNAGYLQMNSLKPEDTALYYCAAGAQSDRYNIRSYDYWGQGTQVTVSS
 |  |  | no binding (tested: 500 nM) | no binding (tested: 500 nM) | no binding (tested: 500 nM) | no binding (tested: 500 nM) |  | VEGFBII23B04 (VHH, not shown: small tags and cut ends) VHH: EVQLVESGGGLVQTGDSLRLSCEVSGRTFSSYSMGWFRQAQGKEREFVVAISKGGYKYDSVSLEGRFTISKDNAKNTVYLQINSLKPEDTAVYYCASSRAYGSSRLRLADTYEYWGQGTQVTVSS
no binding (tested: 5e-7 M) | no binding (tested: 5e-7 M) | no binding (tested: 5e-7 M) | no binding | no binding | no binding | no binding | no binding (tested: 5e-7 M) | VEGFBII010 (VHH, not shown: small tags and cut ends) EVQLVESGGGLVQTGDSLRLSCEVSGRTFSSYSMGWFRQAQGKEREFVVAISKGGYKYDSVSLEGRFTISKDNAKNTVYLQINSLKPEDTAVYYCASSRAYGSSRLRLADTYEYWGQGTQVTVSSGGGGSGGGGSGGGGSGGGGSGGGGSGGGGSGGGGSEVQLVESGGGLVQTGDSLRLSCEVSGRTFSSYSMGWFRQAQGKEREFVVAISKGGYKYDSVSLEGRFTISKDNAKNTVYLQINSLKPEDTAVYYCASSRAYGSSRLRLADTYEYWGQGTQVTVSS
 |  |  | no binding (tested: 500 nM) | no binding (tested: 500 nM) | no binding (tested: 500 nM) | no binding (tested: 500 nM) |  | VEGFBII24C04 (VHH, not shown: small tags and cut ends) VHH: EVQLVESGGGLVQPGDSLKLSCVASGRTSSSYSMGWFRQAQGKEREFVVAISSGGYIYDSVSLQGRFTISRDNTKNTVYLQTPSLKPEDTAVYYCAASRAYGSSRLRLADTYDYWGQGTQVTVSS
no binding (tested: 5e-7 M) | no binding (tested: 5e-7 M) | no binding (tested: 5e-7 M) | no binding | no binding | no binding | no binding | no binding (tested: 5e-7 M) | VEGFBII025 (VHH, not shown: small tags and cut ends) EVQLVESGGGLVQAGGSLRLSCAASGRTFSNYAMGWFRQAPGKERVLVADISSSGINTYVADAVKGRFTISRDNAKNTVYLQMNSLKPEDTAVYYCAASAWWYSQMARDNYRYWGQGTQVTVSSGGGGSGGGGSGGGGSGGGGSGGGGSGGGGSGGGGSGGGGSEVQLVESGGGLVQTGDSLRLSCEVSGRTFSSYSMGWFRQAQGKEREFVVAISKGGYKYDSVSLEGRFTISKDNAKNTVYLQINSLKPEDTAVYYCASSRAYGSSRLRLADTYEYWGQGTQVTVSS
